According to paper PMC10998878, “Inhibition of acyl-CoA binding protein (ACBP) by means of a GABAARγ2-derived peptide” (Cell Death & Disease, 2024):
No constants are given. Whether binding was seen depends on the method and setting. Binding seen in cells or lysates may run through a third protein. Some binding calls cover weakened binding; strength is not graded here.

Target: T1, Biotinylated GABAARγ2-EP-WT (mouse)
T1 sequence (peptide, biotin (site not stated)): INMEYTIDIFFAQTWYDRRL
Assay: pull-down; biotinylated WT or F77I eicosapeptide (1x, 2x, 4x) on beads, incubated with 500 µg mouse liver protein extract overnight at 4 °C, three PBS washes, immunoblot for ACBP; only the target purified

binding: binds
B1: endogenous (native) ACBP/DBI of mouse liver (protein, UniProt P31786 1-87)
chain: MSQAEFDKAAEEVKRLKTQPTDEEMLFIYSHFKQATVGDVNTDRPGLLDLKGKAKWDSWNKLKGTSKESAMKTYVEKVDELKKKYGI
